Laboratory results: paper PMC12370185
The list shows a part of the results. At the low end of the ranking the order means little.

Tested on: OCT4 + histone octamer
Assay: Pioneer-seq (competitive nucleosome EMSA with sequencing)
Settings: 10 mM Tris-Cl pH 7.5, 50 mM NaCl, 1 mM DTT, 0.25 mg/ml BSA, 2 mM MgCl2, 0.025% Nonidet P-40, 5% glycerol; 28 nM nucleosome library; 10 min on ice then 30 min …; high values mean tight binding; double strand, one strand shown

Sequence | binding signal (log2 relative supershift)
GATGGACCCTATACGCGGCATTTCTGTAGGACCCACCCACCTTCCACCCACATCTCCTCTCTAACCCCCGCTCCCAGTGCCTCACCTCCTGGCCTAAGCCCCGCCCATGAGCCATCCGACCCTGCCTCCCTAGGGTAACAAGGGTGGCGTGAGCGTGCGCCTGGCGGCCTTCGGGCACATGCTCTGCTTCCTGAACTGCCACTTGCCTGCTGCCAGTCGGATAGTGTTCC | -1.07
GATGGACCCTATACGCGGCAGTAAGGTGGGCCCTTCACACCATGTGACTGGTATCCTTAAAAGAAGAAGAGACTCAGAGGGAAGACAGCCATGTGCAGCTGGAATGATGCATCTGAAGCCAAGGAATGCCACGCATTGCCAGCCACCACCCAAAACTGGAAAAAGTCAGGAAGGATTCTTCCCTAGAACCTTCAAAGGCAGCACAGCCCTTGCCAGTCGGATAGTGTTCC | -0.895
GATGGACCCTATACGCGGCGGGAGCTCCACTGAGGAGGGTGTGAGACATCACCAGCTGTGCCTGCATCCCCATCACAATCTCATAGAGAGCGGGAACAGCTTCCCAGGGAACAGCTCCGCACCCTGGGCATGAACACGAGTGCGTGTGTGTGACTATGAGAGTGTGTGAGGGTGTATTTGGGCATGAGTGTGCTGTGTGCATGTGTATATTGCCAGTCGGATAGTGTTCC | -0.0756
GATGGACCCTATACGCGGCTGCCACCCTTGGCTGTACCAAGCTCTGGGAAGGAAGGAGGGGACGTGTCCCAGGTACCCCCTCCACCCACATTGGTGAGGCTGACTCAGGCCCCAGCCACGTGTCCCAACCTGCCCTGCGCGTCCCAGAGGGGAAGGAAGATATTCCAATGCTCCCAGGAGGCTGAGGTTGGGCAGGGAGCAGGAGAGAGGTGCCAGTCGGATAGTGTTCC | -0.0405
GATGGACCCTATACGCGGCTACTGTAGTGCAGCAAATATCTGTAGTGGCTAAAACTACATTTATTACTCCTTGTAAGTCTGTGTGTTTGCGGGGTAGATTAACTGATACAGGCTGGGCTTGACCAATCTCAATCTCAATGAGCTTGTTCATGTCCTGTGGTCAGTGGGGGATTGGCTAGTCTAGGATGGTCATGGCTGGGAGATATCATCTGCCAGTCGGATAGTGTTCC | -0.431
GATGGACCCTATACGCGGCAGCTGGGAGAGGCTAGTAGGGTGTGTGGGCAGGGAGGGGTGGAGGAGTCCTGGGAGGAGAGGAAGGGAGGCACAGGGTAGGAGTGTGCAGAGCGGGGAGTGGATGGCAAACACACAATCCACCCAACCACATGTGCTCTTTACCCCCCAGCTGATCCAGAAGTACAAGGTGGTCCTGGCCCCGGAGACGGGTGCCAGTCGGATAGTGTTCC | -0.036
GATGGACCCTATACGCGGCATAGCACAGTAGCTGTGAGGAAGTGACCGCTCAGGTGTTGGGTGATGTGTCTAGGGTCACATTGCCTAGAAGAGTGGCAGGGCTGCGCTTGCTGCAGGCTTGCTTGATCCTGAAGCCCTGGTTCCTCTCACCATGCCCTGGGCTGCAGAACTCACTTCTGGGCCTTGTAAGGCCGCTGGTGGGTAATGGTGTGCCAGTCGGATAGTGTTCC | -0.0939
GATGGACCCTATACGCGGCCCGCCCCAGCAGGCCCATTGCATCAGCTGCAGGCCGGGGGTTGGGGGGTGTCCCAGCCCTCAGCTTGCCCACTCCCTCCTGCCCAGCCCTGCCCTGGCTTTCCTGCTCTGCTCCCACCCACAGCTCCCTGACATTGTCACCTACCTCCTGAGCTGTCACCACAGGGCGCACGGGACTCCGCTGCCCCAGGTTGCCAGTCGGATAGTGTTCC | -0.819
GATGGACCCTATACGCGGCCCTTCCTGCAGACCTGGCTGGGCCTGGGCTTCCACAGTGTGAAGACACTGTGCAGGCCCAGGCAGGCCCAGCCTCTGCCCCACCCATCAGTGGAGTCCAGATGGCAGGCTACAGTTGGGAAGTCTCAGCCTGGGCCCCTCAGCCACCCTTGGTCTCATGCCCCGCCATGGTCACCCTCAGGAACCCACCCTTGCCAGTCGGATAGTGTTCC | -1.15
GATGGACCCTATACGCGGCATTGGGAATCTGGGAGCACTCTTCTTGGTGCCTTTGGCTCAGGATCACTCACAAGGCTGCAGTCAAGGTATCCCCTGGGGCAGCCATCGTCTCAAGCCTCCGCTGGAAGAGGGTGCATGTCCAAGCTTGCCCATGTGGCTGTGGGCAGGCCTCAAGTCTTCACTGGCTGTTGGCTGAAGGCATCAATTTCTTGCCAGTCGGATAGTGTTCC | -0.638
GATGGACCCTATACGCGGCAGCATGATTCTCGCGATCCATTACTTCTGAAACAGATGACTCCCAGCAGCTGCTGCCTGTGGCCCACAGGGCTTCCTGCCCTGCATGACAGCTGCACATCACATCCTGTGGTCATACTACTTCAGCCGCTTCTACGGCCAGATACAAAAGTGGGTGGGGAACATAGGCAAGGGATCCAGCGACTTTACCGGTGCCAGTCGGATAGTGTTCC | -0.606

Given in markdown: part of the list above.

| Sequence | binding signal (log2 relative supershift) |
| --- | --- |
| GATGGACCCTATACGCGGCTGCCACCCTTGGCTGTACCAAGCTCTGGGAAGGAAGGAGGGGACGTGTCCCAGGTACCCCCTCCACCCACATTGGTGAGGCTGACTCAGGCCCCAGCCACGTGTCCCAACCTGCCCTGCGCGTCCCAGAGGGGAAGGAAGATATTCCAATGCTCCCAGGAGGCTGAGGTTGGGCAGGGAGCAGGAGAGAGGTGCCAGTCGGATAGTGTTCC | -0.0405 |
| GATGGACCCTATACGCGGCAGCTGGGAGAGGCTAGTAGGGTGTGTGGGCAGGGAGGGGTGGAGGAGTCCTGGGAGGAGAGGAAGGGAGGCACAGGGTAGGAGTGTGCAGAGCGGGGAGTGGATGGCAAACACACAATCCACCCAACCACATGTGCTCTTTACCCCCCAGCTGATCCAGAAGTACAAGGTGGTCCTGGCCCCGGAGACGGGTGCCAGTCGGATAGTGTTCC | -0.036 |
